{"source": "the supplement of paper PMC10338343", "note": "± gives the standard deviation. This is a selection; strong and weak results do not stand in their true shares. The uncertainty is large for many entries."}
{"test_system": "MIWI (PIWIL1) piRISC loaded with piRNA #1 (30 nt)", "assay": "pre-steady-state target cleavage rate (min^-1); MIWI and MILI are mouse PIWI proteins and EfPiwi is from a freshwater sponge; tags in brackets are library labels; higher = faster piRNA-guided slicing of the target", "details": "guide: piRNA #1 5'p-UGAGGUAGUAGGUUGUAUAGUAUCCAGAGG; auxiliary factor: 500 nM mouse GTSF1", "how_it_was_run": "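The method was Cleave-'n-Seq, in which uncleaved targets from a transcribed, DNA-blocked target RNA library were sequenced after exposure to active affinity-purified piRISC carrying one synthetic guide, with or without GTSF1 partner protein. Reactions contained 0.1 nM library, 1 nM piRISC and, where present, 500 nM GTSF1 in HEPES–potassium acetate buffer at 33 °C for 0–8 or 0–960 min. Reads were normalised to depth and to weakly complementary targets, three trials were pooled, and k3 was capped at 0.0001 min^-1. The pre-steady-state cleavage rate came from a burst-and-steady-state fit.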"}
{"sequence": "GCUCUGAUACUAUACAACCUACUACCUCA", "pre-steady-state target cleavage rate": "1.9 ± 0.12"}
{"sequence": "CCUCUGGAUACUAUACAACCUACUCCUCA", "pre-steady-state target cleavage rate": "0.105 ± 0.022"}
{"sequence": "GGAGUGGAUACUAUACAACCUAUACCUCA", "pre-steady-state target cleavage rate": "0.000944 ± 0.0065"}
{"sequence": "GGACUGGAUACUAUACAACCUAGUACCUGA", "pre-steady-state target cleavage rate": "0.00268 ± 0.0037"}
{"sequence": "CCUCUUGAUACUAUACAACCUACUACCUCA", "pre-steady-state target cleavage rate": "2.33 ± 0.14"}
{"sequence": "CCUCUGGAUACUAUACAACCUAGUACCUCA", "pre-steady-state target cleavage rate": "0.172 ± 0.039"}
{"sequence": "GGUCUGGAUACUAUACGAACCUACUACCUCA", "pre-steady-state target cleavage rate": "0.00151 ± 0.0047"}
{"sequence": "GGAGACCUAACUUAACAACCUACUACCUCA", "pre-steady-state target cleavage rate": "0.00423 ± 0.0053"}
{"sequence": "GGAGACCUAUGAUUACAACCUAUCUACCUCA", "pre-steady-state target cleavage rate": "0.00105 ± 0.0055"}
{"sequence": "GCUCAGGAUACUAUACAACCUACUACCUCA", "pre-steady-state target cleavage rate": "1.85 ± 0.11"}
{"sequence": "GGACCUGGAUACUAUACAACCUACUACCUCA", "pre-steady-state target cleavage rate": "1.96 ± 0.14"}
{"sequence": "GGAGACCUAUGAAUACAACCUACUACCUA", "pre-steady-state target cleavage rate": "0.00141 ± 0.0049"}
{"sequence": "GCUCUGGAUACUAUACAAGGAUGAUGGAGA [g13:g29:cont:t1A]", "pre-steady-state target cleavage rate": "0.000409 ± 0.021"}
{"sequence": "GCUCUGGAUACUAUCAACCUACUACCUCA", "pre-steady-state target cleavage rate": "1.78 ± 0.12"}
{"sequence": "GGAGACCUAUGAAUACAAGCUACAACCUCA", "pre-steady-state target cleavage rate": "0.000326 ± 0.0086"}
{"sequence": "GGAGACCUAUGAUUACAACCUACUACCUCG [g2:g17:cont:t1G]", "pre-steady-state target cleavage rate": "0.00188 ± 0.0037"}
{"sequence": "GGAGACCUAUGAAUACAACCUACUCACCUCA", "pre-steady-state target cleavage rate": "0.00166 ± 0.0031"}
{"sequence": "GGACUGGAUACUAUACAACCUACUAGCUGA", "pre-steady-state target cleavage rate": "0.000451 ± 0.0071"}
{"sequence": "GGUCUGGAAACUAUACAACCAACUACCUCA", "pre-steady-state target cleavage rate": "0.138 ± 0.015"}
{"sequence": "GGAGACCUAUGUAUUCAACCUUCUACCUCA", "pre-steady-state target cleavage rate": "0.000514 ± 0.0043"}
{"sequence": "GCUCUGGUUACUUUACAACCUACUACCUCA", "pre-steady-state target cleavage rate": "1.7 ± 0.089"}
{"sequence": "GGAGUGGAUACUAUACAACCUACUCACCUCA", "pre-steady-state target cleavage rate": "0.793 ± 0.088"}
{"sequence": "CCACUGGUUACUAUACAACCUACUACCUCA", "pre-steady-state target cleavage rate": "2.28 ± 0.14"}
